Data published in patent publication US20240343712A1, “SOLID-STATE FORMS OF 2-(3-(4-(1H-INDAZOL-5-YLAMINO)QUINAZOLIN-2-YL)PHENOXY)-N-ISOPROPYLACETAMIDE METHANE SULFONIC ACID SALT” (Sandoz AG, priority 2021, published 2024).
Where a name gives a salt, the structure may show the parent alone. At least one structure is not confirmed: it was looked up by name or label, or the drawing left a doubt. Some results were stated once for a whole list of compounds, not compound by compound.

Assay: Gravimetric moisture sorption (GMS)
Type: physicochemical
Details: (25 ± 0.1)° C.; for Δm (0-80% RH): gravimetric moisture sorption; for Δm (0-80% RH) / Comment (hygroscopicity / behaviour upon moisture contact): 0-80% RH
Description: Moisture sorption isotherms were recorded with an SPSx-1μ moisture sorption analyzer (ProUmid, Ulm). The measurement cycle was started at ambient relative humidity (RH) of 40%. Relative humidity was then decreased to 5% RH in 5% steps, followed by a further decrease to 3% RH and to 0% RH. Afterwards RH was increased from 0% to 90% in a sorption cycle and decreased to 0% in a desorption cycle in 5% steps. Finally RH was increased from 0 to 40% in 5% steps.
The time per step was set to a minimum of 2 hours and a maximum of 6 hours. If an equilibrium condition with a constant mass of +0.01% within 1 hour was reached before the maximum time for all examined samples the sequential humidity step was applied before the maximum time of 6 hours. If no equilibrium was achieved the consecutive humidity step was applied after the maximum time of 6 hours. The temperature was 25±0.1° C.

## CC(C)NC(=O)COc1cccc(-c2nc(Nc3ccc4[nH]ncc4c3)c3ccccc3n2)c1.CS(=O)(=O)O [Mesylate Form I, 2-(3-(4-(1H-indazol-5-ylamino)quinazolin-2-yl)phenoxy)-N-isopropylacetamide methane sulfonic acid]
Listed as belumosudil mesylate Form I
  Δm (0-80% RH): less than 2 w-%

## CC(C)NC(=O)COc1cccc(-c2nc(Nc3ccc4[nH]ncc4c3)c3ccccc3n2)c1.CS(=O)(=O)O [Mesylate Form HyA, 2-(3-(4-(1H-indazol-5-ylamino)quinazolin-2-yl)phenoxy)-N-isopropylacetamide methane sulfonic acid]
Listed as Form HyA
  Relative humidity of dehydration (release of crystal water): below 3 % RH

## CC(C)NC(=O)COc1cccc(-c2nc(Nc3ccc4[nH]ncc4c3)c3ccccc3n2)c1 [HCl salt, reference compound]
  Comment (hygroscopicity / behaviour upon moisture contact): Moderately hygroscopic
  Δm (0-80% RH): +14.3 w-%
Listed as belumosudil HCl
  Comment (hygroscopicity / behaviour upon moisture contact): very hygroscopic
Listed as belumosudil hydrochloride salt
  Comment (hygroscopicity / behaviour upon moisture contact): takes up significantly high amounts of water

## CC(C)NC(=O)COc1cccc(-c2nc(Nc3ccc4[nH]ncc4c3)c3ccccc3n2)c1.CS(=O)(=O)O [Mesylate Form II, 2-(3-(4-(1H-indazol-5-ylamino)quinazolin-2-yl)phenoxy)-N-isopropylacetamide methane sulfonic acid]
Listed as Form II
  Δm (0-80% RH): less than 2 w-%

## CC(C)NC(=O)COc1cccc(-c2nc(Nc3ccc4[nH]ncc4c3)c3ccccc3n2)c1.CS(=O)(=O)O [Mesylate Form HyB, 2-(3-(4-(1H-indazol-5-ylamino)quinazolin-2-yl)phenoxy)-N-isopropylacetamide methane sulfonic acid]
Listed as Form HyB
  Relative humidity of dehydration (release of crystal water): below 3 % RH
